Source: PubChem BioAssay AID2283591 (EPA ToxCast, 2025).

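Cytotoxicity counter-screen in HCT-116 reporter cells, with surviving-cell signal measured by luminescence. The test concentration is not given here. The value is the AC50, the concentration giving half of the maximal fitted drop in viability; lower values mean stronger cytotoxic potency. Active means a continuous hit score of at least 0.90 and inactive means below 0.90; how inconclusive calls are assigned is not stated here.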

Values are in nM. All entries here are filed as inconclusive. These entries are mostly ones the record files as inconclusive; other results of the assay are not listed here. Activity scores are not listed here. An entry listed twice with the same setting is a separate test.

compound,AC50 (nM)
CCC(C)CO (stereo not shown),46083
C=C[Si](OC(C)=O)(OC(C)=O)OC(C)=O,83320
COc1cccc2c1C(=O)c1c(O)c3c(c(O)c1C2=O)C[C@@](O)(C(=O)CO)C[C@@H]3O[C@H]1C[C@H](N)[C@H](O)[C@H](C)O1,23041
CC1(C)S[C@@H]2[C@H](NC(=O)COc3ccccc3)C(=O)N2[C@H]1C(=O)O,46083
CCCCC(CC)COC(=O)c1c(Br)c(Br)c(Br)c(Br)c1C(=O)OCC(CC)CCCC (stereo not shown),33871
CCCCOCCOCCOC(C)=O,46079
CNC(=S)N(C)C,48155
C=CC(C)(CCC=C(C)C)OC(=O)C(C)C (stereo not shown),46083
CC(=O)[C@H]1CC[C@H]2[C@@H]3CC=C4C[C@@H](O)CC[C@]4(C)[C@H]3CC[C@]12C,46036
NC(=O)O,46083
O=[N+]([O-])c1cc([As](=O)(O)O)ccc1O,10299
Nc1ccc(S(=O)(=O)Nc2nccs2)cc1,6297
CCC(C)CO (stereo not shown),50198
CO[C@@H]1[C@H](OC(=O)NC(=O)CCl)CC[C@]2(CO2)[C@H]1[C@@]1(C)O[C@@H]1CC=C(C)C,14231
CCN(CCN)c1cccc(C)c1,46084
CCCCOCCOCCSC#N,125.2
Fc1ccc(Br)cc1,84478
CSc1ccc(Cl)cc1,46081
CCC1(c2ccccc2)C(=O)NCNC1=O,23041
O=C(Cl)c1ccc(C(=O)Cl)cc1,14416
COC(=O)/C=C/C(C)=C\C=C\C(C)=C\C=C\C=C(C)\C=C\C=C(C)\C=C\C(=O)O,46083
CCCCCCCCCCCCCCCCC,86469
OCC(O)CCl (stereo not shown),46073
CC(C)=CCC/C(C)=C\CO,1.26
CCCCCOC(=O)c1ccccc1C(=O)OCCCCC,2799
CC(CN1c2ccccc2Sc2ccccc21)N(C)C (stereo not shown),23.99
CCOc1ccc(N)c([N+](=O)[O-])c1,2.586
OCC(O)CCl (stereo not shown),46083
CC(=O)CCc1ccccc1,46084
CN(C)C=O,46937
OCc1ccc(Cl)cc1Cl,3640
CCCOC(=O)c1c(Cl)c(Cl)c(Cl)c(Cl)c1C(=O)OCCC,14886
C=C(C#N)C(=O)OCC,46082
COC(=O)OC,5.199
Cc1ccc(O)c(C)c1,45557
CN(C)C=O,8675
CCN(Cc1cccc(S(=O)(=O)O)c1)c1ccc(C(=C2C=CC(=[N+](CC)Cc3cccc(S(=O)(=O)[O-])c3)C=C2)c2ccccc2)cc1,1.181
CC1(C)S[C@@H]2[C@H](NC(=O)COc3ccccc3)C(=O)N2[C@H]1C(=O)O,46145
CN(C)CCO,6582
O=c1ccc2ccccc2o1,46882
Cc1cc(C2(c3cc(C)c(O)cc3C)OS(=O)(=O)c3ccccc32)c(C)cc1O,79713
Cc1cc(=O)[nH]c(C(C)C)n1,84634
CC(=O)c1ccccc1O,87131
CCCCCC=O,10.75
CC(C)c1ccc(C=O)cc1,9144
CC/C=C\CCOC(=O)CC,22.77
N#CCCCC(C#N)CCC#N (stereo not shown),6786
CCCCCCOC(=O)C(C)CC (stereo not shown),46084
COc1ccc([N+](=O)[O-])cc1N,23.26
O=c1c(O)c(-c2ccc(O)c(O)c2)oc2cc(O)cc(O)c12,0.8268
CC(CN1c2ccccc2Sc2ccccc21)N(C)C (stereo not shown),160.6
COc1ccc(C=O)cc1OC,46497
CCOCC(=O)O,46085
O=S(=O)(O)c1ccc2cc(O)c(S(=O)(=O)O)cc2c1,12122
CC(C)(C)NC(N)=O,78758
CCN(CC)C(=O)C(Cl)=C(C)OP(=O)(OC)OC,23041
Nc1ccc(Cl)c(Cl)c1,46082
CC(C)OB(OC(C)C)OC(C)C,46084
OCCCc1ccccc1,5816
CC(=O)NS(=O)(=O)c1ccc(N)cc1,46195
Cc1ccc2c(c1)C(=O)OC2=O,84573
CCCCN(CCO)CCO,45990
CC(C)CC(=O)CC(C)CC(C)C (stereo not shown),11761
C=C(C)C(=O)OCC(CC)(COC(=O)C(=C)C)COC(=O)C(=C)C,45392
Nc1ccc(S(=O)(=O)Nc2nccs2)cc1,46081
CN(C)CCC=C1c2ccccc2CCc2ccccc21,644.2
CN(C)CCC=C1c2ccccc2CCc2ccccc21,228.3
CCN(CC)C(=O)C(Cl)=C(C)OP(=O)(OC)OC,46082
CC(C)(O)CCc1ccccc1,0.118
O=C(C=Cc1ccccc1)OCc1ccccc1,23041
Cc1[nH]c(=O)c(C#N)cc1-c1ccncc1,5862
CC(C)CCCCCCCOC(=O)c1ccccc1C(=O)OCCCCCCCC(C)C,46149
CC(C)(CO)COC(=O)C(C)(C)CO,46084
CC(C)(Oc1ccc(C2CC2(Cl)Cl)cc1)C(=O)O (stereo not shown),44559
CCCCCNCCCCC,47016
Cc1ncc([N+](=O)[O-])n1C,85016
Nc1cccc2ccccc12,46313

5 of the entries, repeated:

| compound | AC50 (nM) |
|---|---|
| `CC(CN1c2ccccc2Sc2ccccc21)N(C)C` (stereo not shown) | 23.99 |
| `CCCCN(CCO)CCO` | 45990 |
| `COc1ccc([N+](=O)[O-])cc1N` | 23.26 |
| `CO[C@@H]1[C@H](OC(=O)NC(=O)CCl)CC[C@]2(CO2)[C@H]1[C@@]1(C)O[C@@H]1CC=C(C)C` | 14231 |
| `OCCCc1ccccc1` | 5816 |